Measured values as given in PubChem BioAssay AID1347076 (National Center for Advancing Translational Sciences (NCATS), 2019).
Out of some 400,000 compounds screened, about 13,000 (3.2%) were called active. Inconclusive means that the source gave no clear call. Such entries were picked first, then a sample of the others. The call rests on the fitted dose curve; in most records, active means well fitted cell-killing curve with a large enough effect; inconclusive means small, poorly fitted or top-dose-only effect, or effect the other way; inactive means flat fitted curve, though single readings scatter. Potencies beside an inconclusive call are fits to weak or partial responses and may not hold up.

Experiment: qHTS assay for MDR1-selective chemotherapeutics: Primary screen using the drug-selected MDR subline cells KB-V1; further: nearly all actives have a fitted effect of over 60% in size
Settings: KB-V1 MDR cells viability, CellTiter-Glo, 72 h; activity change, negative = cytotoxicity: at 46.1 µM (top of the series)
Method in brief: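 Cytotoxicity toward P-gp-expressing KB-V1 cells was determined as loss of CellTiter-Glo luminescence after 72 h at 37 degrees C. Compounds were tested in quantitative HTS format across a concentration range, with curves fitted to normalized data.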
On the % scale 0 is the no-effect control and ±100 the full control effect; potency means the concentration at half of the fitted maximal effect.

**Q.** Which “activity change, negative = cytotoxicity” value does the source give for `Cc1cccc(N2C(=O)NC(=O)/C(=C/c3ccc([N+](=O)[O-])o3)C2=O)c1` here?
**A.** inactive: -0.88%

**Q.** With `CCOP(=S)(OCC)Oc1cc(C)oc(=O)c1Cl` as the compound, how does the Potency read?
**A.** inconclusive: 29.1 µM [rising, single point]

**Q.** With `C=CCN1C(=O)C2(C(C(=O)OCC)=C(N)Oc3ccccc32)c2c1c1ccccc1oc2=O` (stereo not given) as the compound, how does the Potency read?
**A.** inconclusive: 9.2 µM [cytotoxic, partial curve]

**Q.** With `O=c1[nH]c(=O)n(-c2ccccc2F)c(O)c1/C=C1\C=Nc2ccccc21` as the compound, how does the “activity change, negative = cytotoxicity” value read?
**A.** inactive: 4.52%

**Q.** Which Potency does the source give for `COc1ccccc1NC(=O)COC(=O)c1cc(C)n(C2CC2)c1C` here?
**A.** inconclusive: 29.1 µM [rising, single point]

**Q.** For `NS(=O)(=O)c1ccc(N=Cc2c(O)n(C3CCCCC3)c(=O)n(C3CCCCC3)c2=O)cc1`, which “activity change, negative = cytotoxicity” value is on record?
**A.** inactive: -6.49%

**Q.** With `COc1ccc2c(c1)c(C(=O)CN1CCC3(CC1)OCCO3)c(C)n2Cc1ccccc1` as the compound, how does the Potency read?
**A.** inconclusive: 29.1 µM [cytotoxic, single point]

**Q.** With `Cc1cccc(-n2c(/C=C/c3c[nH]c4ccccc34)nc3ccccc3c2=O)c1` as the compound, how does the activity change, negative = cytotoxicity read?
**A.** inconclusive: -39.9% [cytotoxic]

**Q.** With `Cc1cccc(NP(=O)(Oc2ccccc2)Oc2ccccc2)c1C` as the compound, how does the Potency read?
**A.** inconclusive: 16.4 µM [cytotoxic, single point]

**Q.** For `O=c1c2ccccc2nc(-c2ccoc2)n1-c1ccccc1`, which Potency is on record?
**A.** inconclusive: 13 µM [cytotoxic, partial curve, poor fit]

**Q.** With `CCOc1ccc(N=Cc2c(O)n(CCc3ccc(OC)c(OC)c3)c(=O)[nH]c2=O)cc1` as the compound, how does the “activity change, negative = cytotoxicity” value read?
**A.** inactive: -11.1%

**Q.** For `COC(=O)C1=C(c2ccc(-c3ccccc3)c(F)c2)C[C@@H]2CC[C@H]1N2C(=O)NCCOc1ccccc1Cl`, which Potency is on record?
**A.** active: 20.6 µM

**Q.** For `COc1ccc(C2=CC(c3ccc(OC)c(OC)c3)c3c(c4ccccc4oc3=O)O2)cc1OC` (stereo not given), which “activity change, negative = cytotoxicity” value is on record?
**A.** inactive: 4.26%

**Q.** Which “activity change, negative = cytotoxicity” value does the source give for `CCCCC(=O)N/N=C/c1c(O)n(CC)c(=S)[nH]c1=O` here?
**A.** inactive: 8.92%

**Q.** With `CN1C(=O)C(=CN2CCN(C(=O)c3ccco3)CC2)C(=O)N(C)C1=S` as the compound, how does the Potency read?
**A.** inconclusive: 10.3 µM [rising, partial curve, poor fit]

**Q.** For `Fc1cccc(-c2ccc3c(c2)CN(C(=S)NCCc2ccccc2)Cc2cnnn2-3)c1`, which Potency is on record?
**A.** inconclusive: 29.1 µM [cytotoxic, single point]

**Q.** With `Cc1nc2ccccc2c(=O)n1-c1cccc(O)c1` as the compound, how does the “activity change, negative = cytotoxicity” value read?
**A.** inactive: 9.31%

**Q.** For `COC1=C(C)C(=O)c2c(c(COC(N)=O)c3n2C[C@@H]2[C@@H]3N2C)C1=O` (stereo not given in full), which Potency is on record?
**A.** inconclusive: 29.1 µM [cytotoxic, single point]

**Q.** For `COc1cc([C@@H]2c3cc4c(cc3[C@H](OC(C)=O)[C@H]3COC(=O)[C@H]23)OCO4)cc(OC)c1OC`, which Potency is on record?
**A.** inconclusive: 0.0116 µM [cytotoxic, full curve, poor fit]

**Q.** With `Cn1cccc1/C=C1\C(=O)NC(=O)N(CCC2=CCCCC2)C1=O` as the compound, how does the “activity change, negative = cytotoxicity” value read?
**A.** inactive: -19.2%

**Q.** For `O=C1NC(=O)C(=Cc2ccc(Sc3ccccc3)o2)C(=O)N1`, which Potency is on record?
**A.** inconclusive: 29.1 µM [cytotoxic, single point]

**Q.** Which “activity change, negative = cytotoxicity” value does the source give for `O=C1CC(=O)N(Cc2ccccc2)C(=O)N1CCCCCCN1C(=O)CC(=O)N(Cc2ccccc2)C1=O` here?
**A.** inactive: -0.0512%

**Q.** For `CC(=O)c1c(C)n(CCCOC(C)C)c2ccc(O)cc12`, which Potency is on record?
**A.** inconclusive: 32.6 µM [cytotoxic, single point]

**Q.** For `Nc1ccccc1-[n+]1c(-c2ccccc2)cc(-c2ccccc2)cc1-c1ccccc1`, which Potency is on record?
**A.** inconclusive: 9.2 µM [rising, partial curve, poor fit]

**Q.** With `CCC1(CC)C(=O)NC(=Nc2cccc(C(F)(F)F)c2)NC1=O` as the compound, how does the Potency read?
**A.** inconclusive: 16.4 µM [cytotoxic, single point]

**Q.** For `CCOC(=O)[C@]12Cc3cc(Cl)ccc3[C@H]1N(Cc1ccccc1)C(=O)c1cc(OC)ccc12`, which Potency is on record?
**A.** active: 7.31 µM

**Q.** Which activity change, negative = cytotoxicity does the source give for `CC(=NCc1ccco1)c1c(O)n(-c2ccccc2)c(=O)[nH]c1=O` here?
**A.** inconclusive: -80.2%

**Q.** For `Cc1ccc(S(=O)(=O)N2CCCCC2)cc1NC(=O)CN1CC=C(c2ccccc2)CC1`, which Potency is on record?
**A.** active: 6.51 µM

**Q.** Which Potency does the source give for `CC1CC2CC(=O)CCC2(C)C2CCC3(C)C(O)CCC3C12` (stereo not given) here?
**A.** active: 5.8 µM

**Q.** For `CCOC(=O)c1c(C)c(P(=S)(N2CCOCC2)N2CCOCC2)n(C)c1C`, which “activity change, negative = cytotoxicity” value is on record?
**A.** inactive: -0.544%

**Q.** With `O=C(NC1CCCCC1)N1Cc2cc(-c3ccccc3)ccc2-n2nncc2C1` as the compound, how does the Potency read?
**A.** inconclusive: 16.4 µM [cytotoxic, single point]

**Q.** For `COC(=O)N(c1ccccc1)P(=O)(Oc1ccccc1)Oc1ccccc1`, which “activity change, negative = cytotoxicity” value is on record?
**A.** inactive: -4.92%

**Q.** With `O=Cc1cn(Cc2ccc(F)cc2Cl)c2ccccc12` as the compound, how does the Potency read?
**A.** inconclusive: 16.4 µM [cytotoxic, single point]

**Q.** For `Cc1ccc(OP(=O)(NCc2ccccc2)Oc2ccc(C)cc2)cc1`, which Potency is on record?
**A.** active: 14.6 µM

**Q.** With `Cc1ccc(N2C(=O)NC(=O)/C(=C\C=C\c3ccco3)C2=O)cc1C` as the compound, how does the Potency read?
**A.** inconclusive: 29.1 µM [cytotoxic, single point]

**Q.** For `CC(C)CCCn1c(O)c(/C=C2/C=CC=N2)c(=O)[nH]c1=O`, which Potency is on record?
**A.** inconclusive: 11.6 µM [cytotoxic, partial curve]

**Q.** For `COC(=O)C1=C(c2cccc(OCc3ccccc3)c2)C[C@@H]2CC[C@H]1N2C(=O)NCc1cccc(OC)c1`, which Potency is on record?
**A.** inconclusive: 20.6 µM [cytotoxic, single point]

**Q.** With `CCCCN1C(=O)NC(=O)C2(Cc3ccccc3N3CCOCC32)C1=O` (stereo not given) as the compound, how does the Potency read?
**A.** inconclusive: 16.4 µM [cytotoxic, single point]

**Q.** For `Cc1ccc(CN2C(=O)NC(=O)C3(Cc4c(nc5ccccn5c4=O)N4CCCCCC43)C2=O)cc1` (stereo not given), which Potency is on record?
**A.** inconclusive: 16.4 µM [cytotoxic, partial curve]

**Q.** For `COc1ccc(NC(=O)N2CCC3(CC2)OCCO3)cc1`, which “activity change, negative = cytotoxicity” value is on record?
**A.** inactive: -2.69%

**Q.** Which Potency does the source give for `Nc1nnc(CCN2CCCCC2)s1` here?
**A.** inconclusive: 25.9 µM [rising, single point]

**Q.** For `Cc1cccc(C(=O)NC(Oc2ccccc2)C(Cl)(Cl)Cl)c1` (stereo not given), which “activity change, negative = cytotoxicity” value is on record?
**A.** inactive: 3.96%

**Q.** With `CCC(=NCCOc1ccc(Cl)cc1)c1c(O)n(C)c(=O)n(C)c1=O` as the compound, how does the Potency read?
**A.** active: 18.4 µM

**Q.** Which Potency does the source give for `COc1ccc(-c2nc(CN3C(=O)CN=C(c4ccccc4)c4ccccc43)c(C)o2)cc1` here?
**A.** inconclusive: 29.1 µM [cytotoxic, single point]

**Q.** For `C=CCn1c(O)c(C(CC)=NCCc2ccccc2)c(=O)[nH]c1=O`, which Potency is on record?
**A.** inconclusive: 11.2 µM [cytotoxic, partial curve, poor fit]
